Measured values taken from the supplement of paper PMC10849652.
The list shows a part of the results.

Amino acid sequences for entries named in this document (tags omitted). A change or cut given only in a name is not applied to a line headed by its entry.
UniProt P46439: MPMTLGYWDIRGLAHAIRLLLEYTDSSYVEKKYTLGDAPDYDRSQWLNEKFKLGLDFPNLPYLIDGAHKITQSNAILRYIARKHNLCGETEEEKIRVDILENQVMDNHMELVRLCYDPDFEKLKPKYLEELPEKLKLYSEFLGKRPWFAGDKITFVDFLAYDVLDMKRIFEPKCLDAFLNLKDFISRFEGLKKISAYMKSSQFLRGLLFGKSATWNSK
UniProt P16402, whole entry, looked up: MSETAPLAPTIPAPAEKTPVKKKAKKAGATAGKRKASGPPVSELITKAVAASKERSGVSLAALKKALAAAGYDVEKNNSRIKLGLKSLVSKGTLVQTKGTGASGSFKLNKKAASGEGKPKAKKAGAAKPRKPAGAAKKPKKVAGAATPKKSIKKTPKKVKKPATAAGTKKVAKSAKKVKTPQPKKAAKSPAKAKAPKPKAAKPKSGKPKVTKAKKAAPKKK
UniProt P13807: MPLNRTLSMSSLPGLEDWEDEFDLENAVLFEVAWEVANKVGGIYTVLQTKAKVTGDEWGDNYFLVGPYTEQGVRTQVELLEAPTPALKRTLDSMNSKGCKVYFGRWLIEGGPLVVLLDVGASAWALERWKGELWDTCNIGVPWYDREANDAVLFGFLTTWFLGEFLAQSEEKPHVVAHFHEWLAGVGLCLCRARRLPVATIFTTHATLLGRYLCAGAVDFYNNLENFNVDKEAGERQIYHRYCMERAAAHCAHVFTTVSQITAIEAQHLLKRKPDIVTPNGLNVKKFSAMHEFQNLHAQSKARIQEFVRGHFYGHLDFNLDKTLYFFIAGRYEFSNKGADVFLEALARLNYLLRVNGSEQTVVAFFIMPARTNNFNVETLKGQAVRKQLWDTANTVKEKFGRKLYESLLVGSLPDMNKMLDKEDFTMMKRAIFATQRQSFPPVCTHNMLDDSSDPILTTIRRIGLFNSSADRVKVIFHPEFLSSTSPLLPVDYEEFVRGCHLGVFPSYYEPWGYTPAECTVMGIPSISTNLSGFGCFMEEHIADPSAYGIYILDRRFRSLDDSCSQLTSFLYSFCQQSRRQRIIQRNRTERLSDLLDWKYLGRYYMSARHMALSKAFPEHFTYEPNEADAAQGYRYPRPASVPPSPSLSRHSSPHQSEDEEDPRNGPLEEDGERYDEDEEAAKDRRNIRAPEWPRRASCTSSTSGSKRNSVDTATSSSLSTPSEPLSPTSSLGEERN
UniProt Q13889: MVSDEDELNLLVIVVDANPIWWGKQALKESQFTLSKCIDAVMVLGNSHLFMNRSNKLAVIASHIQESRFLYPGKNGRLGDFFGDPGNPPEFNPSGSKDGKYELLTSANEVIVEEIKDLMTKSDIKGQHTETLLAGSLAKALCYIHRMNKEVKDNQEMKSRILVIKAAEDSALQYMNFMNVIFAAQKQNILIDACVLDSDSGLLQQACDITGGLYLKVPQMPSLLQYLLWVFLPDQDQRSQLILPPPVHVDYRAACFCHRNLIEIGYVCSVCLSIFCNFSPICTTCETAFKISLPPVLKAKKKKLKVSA
UniProt P69891: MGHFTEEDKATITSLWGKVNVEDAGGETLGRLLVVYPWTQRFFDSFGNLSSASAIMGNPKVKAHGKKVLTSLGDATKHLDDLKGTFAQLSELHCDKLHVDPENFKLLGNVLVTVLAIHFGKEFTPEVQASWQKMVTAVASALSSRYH
UniProt P48637: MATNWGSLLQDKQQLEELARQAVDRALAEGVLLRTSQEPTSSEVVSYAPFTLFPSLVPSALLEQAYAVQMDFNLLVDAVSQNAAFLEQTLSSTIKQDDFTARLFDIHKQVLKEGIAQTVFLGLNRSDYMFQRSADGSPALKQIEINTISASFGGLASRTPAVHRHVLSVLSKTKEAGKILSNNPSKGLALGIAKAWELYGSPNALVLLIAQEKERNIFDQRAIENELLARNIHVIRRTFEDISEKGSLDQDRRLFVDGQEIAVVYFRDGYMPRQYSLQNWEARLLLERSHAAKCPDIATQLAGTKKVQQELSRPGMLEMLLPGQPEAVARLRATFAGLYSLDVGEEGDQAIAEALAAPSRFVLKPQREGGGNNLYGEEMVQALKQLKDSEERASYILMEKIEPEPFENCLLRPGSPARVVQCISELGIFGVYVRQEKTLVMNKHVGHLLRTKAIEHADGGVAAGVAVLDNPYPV
UniProt Q8TDG4: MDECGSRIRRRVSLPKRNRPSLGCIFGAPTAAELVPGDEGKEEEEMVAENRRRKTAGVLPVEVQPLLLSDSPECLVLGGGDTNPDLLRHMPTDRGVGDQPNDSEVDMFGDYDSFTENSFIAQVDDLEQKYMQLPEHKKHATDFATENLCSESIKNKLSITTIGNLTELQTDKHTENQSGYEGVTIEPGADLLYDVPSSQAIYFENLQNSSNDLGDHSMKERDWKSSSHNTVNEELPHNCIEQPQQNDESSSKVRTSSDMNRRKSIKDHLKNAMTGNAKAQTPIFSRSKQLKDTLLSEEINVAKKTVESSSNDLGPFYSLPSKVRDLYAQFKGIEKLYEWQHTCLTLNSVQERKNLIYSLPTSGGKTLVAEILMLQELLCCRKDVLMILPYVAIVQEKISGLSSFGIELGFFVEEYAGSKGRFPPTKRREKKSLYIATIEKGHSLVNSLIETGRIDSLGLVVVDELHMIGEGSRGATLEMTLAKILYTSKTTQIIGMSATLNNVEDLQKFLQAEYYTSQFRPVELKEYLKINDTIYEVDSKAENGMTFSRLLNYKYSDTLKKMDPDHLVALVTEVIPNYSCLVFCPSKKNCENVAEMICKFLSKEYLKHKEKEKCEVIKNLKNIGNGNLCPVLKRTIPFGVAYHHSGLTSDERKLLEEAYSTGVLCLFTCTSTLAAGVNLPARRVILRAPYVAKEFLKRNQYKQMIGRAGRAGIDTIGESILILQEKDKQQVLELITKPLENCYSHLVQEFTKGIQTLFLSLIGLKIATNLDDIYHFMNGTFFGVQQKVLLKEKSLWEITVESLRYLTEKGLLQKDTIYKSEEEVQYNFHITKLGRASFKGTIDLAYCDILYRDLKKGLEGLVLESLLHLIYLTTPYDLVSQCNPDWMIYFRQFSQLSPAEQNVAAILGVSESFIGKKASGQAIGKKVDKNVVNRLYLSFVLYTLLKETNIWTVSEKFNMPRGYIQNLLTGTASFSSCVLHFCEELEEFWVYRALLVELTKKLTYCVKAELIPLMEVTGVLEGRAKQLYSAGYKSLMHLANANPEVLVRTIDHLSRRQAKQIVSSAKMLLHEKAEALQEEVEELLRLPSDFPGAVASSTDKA
UniProt P14317: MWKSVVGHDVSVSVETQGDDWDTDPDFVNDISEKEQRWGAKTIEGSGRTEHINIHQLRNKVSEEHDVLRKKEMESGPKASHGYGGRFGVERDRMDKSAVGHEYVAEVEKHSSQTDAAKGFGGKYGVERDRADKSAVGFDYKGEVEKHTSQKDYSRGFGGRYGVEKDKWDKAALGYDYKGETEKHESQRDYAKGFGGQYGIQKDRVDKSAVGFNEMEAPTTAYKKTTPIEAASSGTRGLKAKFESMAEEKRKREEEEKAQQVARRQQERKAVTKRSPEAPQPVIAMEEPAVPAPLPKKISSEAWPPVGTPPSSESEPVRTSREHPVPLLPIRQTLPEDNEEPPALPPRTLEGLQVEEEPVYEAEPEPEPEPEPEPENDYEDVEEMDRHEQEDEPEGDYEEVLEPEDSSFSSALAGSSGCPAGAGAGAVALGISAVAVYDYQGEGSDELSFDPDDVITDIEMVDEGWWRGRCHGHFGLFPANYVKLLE
UniProt O43824: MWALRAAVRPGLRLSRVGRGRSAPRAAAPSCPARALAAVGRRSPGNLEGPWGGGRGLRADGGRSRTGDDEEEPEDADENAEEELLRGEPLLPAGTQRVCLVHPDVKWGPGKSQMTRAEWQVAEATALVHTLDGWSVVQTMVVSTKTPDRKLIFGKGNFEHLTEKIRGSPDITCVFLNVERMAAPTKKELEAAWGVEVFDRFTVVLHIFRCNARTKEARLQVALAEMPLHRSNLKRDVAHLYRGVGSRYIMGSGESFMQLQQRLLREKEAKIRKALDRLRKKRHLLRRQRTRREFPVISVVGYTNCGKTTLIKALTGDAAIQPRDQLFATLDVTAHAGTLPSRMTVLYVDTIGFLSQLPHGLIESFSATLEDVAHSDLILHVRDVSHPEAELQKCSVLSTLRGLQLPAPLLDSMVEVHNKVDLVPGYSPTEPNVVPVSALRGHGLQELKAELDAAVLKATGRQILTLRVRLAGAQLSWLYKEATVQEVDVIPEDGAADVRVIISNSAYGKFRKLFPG
UniProt Q9P2D3: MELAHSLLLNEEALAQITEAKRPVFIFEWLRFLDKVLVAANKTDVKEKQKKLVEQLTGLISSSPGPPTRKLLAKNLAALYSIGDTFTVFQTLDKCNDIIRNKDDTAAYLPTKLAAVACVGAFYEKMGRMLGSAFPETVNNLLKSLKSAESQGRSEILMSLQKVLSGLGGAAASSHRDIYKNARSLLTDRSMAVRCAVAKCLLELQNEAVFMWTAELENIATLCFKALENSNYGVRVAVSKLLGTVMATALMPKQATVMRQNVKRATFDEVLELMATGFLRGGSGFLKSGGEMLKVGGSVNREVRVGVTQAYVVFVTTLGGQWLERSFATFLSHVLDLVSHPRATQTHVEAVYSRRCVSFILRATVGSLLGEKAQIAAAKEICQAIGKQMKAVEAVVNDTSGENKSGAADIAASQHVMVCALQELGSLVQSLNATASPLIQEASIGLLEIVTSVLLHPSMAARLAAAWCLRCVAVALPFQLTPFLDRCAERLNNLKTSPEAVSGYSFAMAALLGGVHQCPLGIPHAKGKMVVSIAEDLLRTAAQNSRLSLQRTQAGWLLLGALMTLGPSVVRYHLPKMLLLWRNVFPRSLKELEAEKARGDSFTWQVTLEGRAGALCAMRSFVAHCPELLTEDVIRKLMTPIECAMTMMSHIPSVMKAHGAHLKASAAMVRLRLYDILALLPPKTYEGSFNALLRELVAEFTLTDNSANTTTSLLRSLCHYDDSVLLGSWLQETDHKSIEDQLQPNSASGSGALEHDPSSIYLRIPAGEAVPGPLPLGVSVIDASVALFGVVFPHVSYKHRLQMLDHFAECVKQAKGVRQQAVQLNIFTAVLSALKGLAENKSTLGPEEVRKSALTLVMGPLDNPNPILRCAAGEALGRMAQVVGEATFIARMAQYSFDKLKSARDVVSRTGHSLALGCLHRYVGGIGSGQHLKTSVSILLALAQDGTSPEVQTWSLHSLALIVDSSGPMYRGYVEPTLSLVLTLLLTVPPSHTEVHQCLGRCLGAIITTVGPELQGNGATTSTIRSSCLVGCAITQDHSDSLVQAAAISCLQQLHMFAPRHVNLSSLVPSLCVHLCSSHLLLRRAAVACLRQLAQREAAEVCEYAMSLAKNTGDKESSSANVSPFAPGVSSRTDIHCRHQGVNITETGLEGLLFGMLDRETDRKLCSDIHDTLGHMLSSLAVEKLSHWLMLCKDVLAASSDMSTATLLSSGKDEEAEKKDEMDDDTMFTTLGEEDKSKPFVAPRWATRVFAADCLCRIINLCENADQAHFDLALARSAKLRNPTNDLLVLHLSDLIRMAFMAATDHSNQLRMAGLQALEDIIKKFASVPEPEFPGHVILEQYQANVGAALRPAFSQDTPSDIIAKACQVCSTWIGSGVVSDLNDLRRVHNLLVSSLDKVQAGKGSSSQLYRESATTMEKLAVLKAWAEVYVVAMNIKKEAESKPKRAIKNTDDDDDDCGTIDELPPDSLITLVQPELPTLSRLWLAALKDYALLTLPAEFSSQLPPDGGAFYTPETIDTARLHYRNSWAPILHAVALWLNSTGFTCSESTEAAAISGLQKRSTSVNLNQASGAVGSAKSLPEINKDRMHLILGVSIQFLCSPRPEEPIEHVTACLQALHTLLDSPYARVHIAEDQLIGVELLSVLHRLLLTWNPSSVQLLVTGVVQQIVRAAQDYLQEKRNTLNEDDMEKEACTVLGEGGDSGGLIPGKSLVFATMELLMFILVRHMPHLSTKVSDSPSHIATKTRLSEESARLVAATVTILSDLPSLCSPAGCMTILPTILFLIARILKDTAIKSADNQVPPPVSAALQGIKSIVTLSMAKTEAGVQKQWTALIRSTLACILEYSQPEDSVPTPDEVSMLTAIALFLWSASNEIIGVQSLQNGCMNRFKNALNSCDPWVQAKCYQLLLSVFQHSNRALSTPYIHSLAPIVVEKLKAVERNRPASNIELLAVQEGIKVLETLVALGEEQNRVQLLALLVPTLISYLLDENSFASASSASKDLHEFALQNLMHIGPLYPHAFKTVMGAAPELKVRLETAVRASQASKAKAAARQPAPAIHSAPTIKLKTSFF
UniProt Q16836: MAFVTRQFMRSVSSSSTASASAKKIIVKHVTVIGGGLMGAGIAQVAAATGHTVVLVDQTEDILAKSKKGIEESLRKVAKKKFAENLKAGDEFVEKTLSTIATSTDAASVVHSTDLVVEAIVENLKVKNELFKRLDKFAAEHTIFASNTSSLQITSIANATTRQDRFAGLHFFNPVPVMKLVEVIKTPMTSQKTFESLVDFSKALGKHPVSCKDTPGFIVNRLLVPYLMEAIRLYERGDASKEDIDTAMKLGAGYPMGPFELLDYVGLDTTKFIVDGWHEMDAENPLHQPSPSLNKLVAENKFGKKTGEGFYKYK

How the values were obtained:
Assay in all cases: log2 fold change, soluble protein after heating vs DMSO (PISA); higher = thermal stabilisation; K562 cells, 10 uM, 30 min; active = over 0.2 and 3.5 SD of the protein, either way, in both replicates (recomputed)
[1] = compound: COC1=CC=C(C=C1)CN2C=CC3=C2C=C(C=C3)C(=O)NO
Outline: (§1)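 K562 cells at 2×10^6 cells/mL were treated with 10 μM compound for 30 min. Aliquots were heated for 3 min across 48°C-58°C, pooled, and extracted in PBS with 0.5% NP-40 at 4°C; soluble protein was the supernatant after 21,000xg for 90 min. Soluble protein was quantified by TMTpro 16plex LC-MS/MS with channel sums equalised, and reported as log2 fold change in thermal stability against DMSO controls, with values from duplicates.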

filanesib = compound: CON(C)C(=O)N1N=C(c2cc(F)ccc2F)S[C@@]1(CCCN)c1ccccc1 [filanesib]
Outline: as §1

zotarolimus = compound: CO[C@H]1C[C@@H]2CC[C@@H](C)[C@@](O)(O2)C(=O)C(=O)N2CCCC[C@H]2C(=O)O[C@H]([C@H](C)C[C@@H]2CC[C@H](n3cnnn3)[C@H](OC)C2)CC(=O)[C@H](C)/C=C(\C)[C@@H](O)[C@@H](OC)C(=O)[C@H](C)C[C@H](C)/C=C/C=C/C=C/1C [zotarolimus]
Outline: as §1

idasanutlin = compound: COc1cc(C(=O)O)ccc1NC(=O)[C@@H]1N[C@@H](CC(C)(C)C)[C@](C#N)(c2ccc(Cl)cc2F)[C@H]1c1cccc(Cl)c1F [idasanutlin]
Outline: as §1

alisertib = compound: COc1cc(Nc2ncc3c(n2)-c2ccc(Cl)cc2C(c2c(F)cccc2OC)=NC3)ccc1C(=O)O [alisertib]
Outline: as §1

[2] = compound: COc1cc2nc(-c3cc(F)ccc3O)nc(N[C@@H]3CNC[C@H]3C(C)(C)O)c2cc1OC
Outline: as §1

gefitinib = compound: COc1cc2ncnc(Nc3ccc(F)c(Cl)c3)c2cc1OCCCN1CCOCC1 [gefitinib]
Outline: as §1

[3] = compound: COc1cccc2cc(-c3nc([C@H]4CC[C@H](C(=O)O)CC4)n4ncnc(N)c34)[nH]c12
Outline: as §1

lapatinib = compound: CS(=O)(=O)CCNCc1ccc(-c2ccc3ncnc(Nc4ccc(OCc5cccc(F)c5)c(Cl)c4)c3c2)o1 [lapatinib]
Outline: as §1

pictilisib = compound: CS(=O)(=O)N1CCN(Cc2cc3nc(-c4cccc5[nH]ncc45)nc(N4CCOCC4)c3s2)CC1 [pictilisib]
Outline: as §1

Measured: log2 fold change

HEBP1 (UniProt Q9NRV9)
inactive: [1] -0.068 | filanesib -0.153 | zotarolimus 0.016 | idasanutlin -0.021 | alisertib -0.139 | [2] 0.046 | gefitinib 0.027 | [3] -0.008 | lapatinib 0.28 | pictilisib 0.333

HARS (UniProt P12081)
inactive: [1] -0.058 | filanesib -0.026 | zotarolimus -0.012 | idasanutlin -0.011 | alisertib -0.034 | [2] -0.009 | gefitinib 0.008 | [3] 0.016 | lapatinib -0.018 | pictilisib 0.01

GSTM5 (UniProt P46439)
inactive: [1] 0.033 | filanesib -0.209 | zotarolimus 0.178 | idasanutlin 0.032 | alisertib 0.173 | [2] 0.049 | gefitinib 0.149 | [3] -0.288 | lapatinib 0.017 | pictilisib 0.053

H1-3 (UniProt P16402)
inactive: [1] -0.097 | filanesib 0.338 | zotarolimus -0.018 | idasanutlin 0.16 | alisertib -0.307 | [2] -0.113 | gefitinib 0.005 | [3] -0.371 | lapatinib 0.18 | pictilisib -0.149

HEPH isoform 3 (UniProt Q9BQS7)
inactive: [1] -0.002 | filanesib 0.073 | zotarolimus 0.03 | idasanutlin 0.054 | alisertib -0.026 | [2] -0.052 | gefitinib 0.028 | [3] 0.006 | lapatinib 0.058 | pictilisib 0.051

HCFC1 isoform 4 (UniProt P51610)
inactive: [1] -0.003 | filanesib -0.011 | zotarolimus 0.01 | idasanutlin -0.088 | alisertib -0.046 | [2] 0.073 | gefitinib -0.035 | [3] 0.013 | lapatinib -0.02 | pictilisib 0.035

GTPBP1 (UniProt O00178)
inactive: [1] -0.03 | filanesib 0.037 | zotarolimus 0.027 | idasanutlin -0.02 | alisertib -0.041 | [2] 0.053 | gefitinib 0.004 | [3] 0.031 | lapatinib -0.004 | pictilisib -0.068

GYS1 (UniProt P13807)
inactive: [1] -0.045 | filanesib 0.045 | zotarolimus 0.124 | idasanutlin 0.462 | alisertib -0.026 | [2] -0.109 | gefitinib -0.006 | [3] -0.165 | lapatinib 0.013 | pictilisib 0.219

GTF2H3 (UniProt Q13889)
inactive: [1] -0.031 | filanesib 0.062 | zotarolimus -0.04 | idasanutlin -0.077 | alisertib -0.155 | [2] 0.016 | gefitinib 0 | [3] 0.041 | lapatinib 0.056 | pictilisib -0.089

HBS1L isoform 2 (UniProt Q9Y450)
inactive: [1] 0.179 | filanesib -0.047 | zotarolimus 0.096 | idasanutlin -0.015 | alisertib -0.08 | [2] -0.329 | gefitinib -0.168 | [3] 0.009 | lapatinib -0.046 | pictilisib -0.049

HBG1 (UniProt P69891)
inactive: [1] 0.066 | filanesib -0.025 | zotarolimus 0.049 | idasanutlin -0.033 | alisertib -0.046 | [2] -0.136 | gefitinib -0.016 | [3] 0.074 | lapatinib 0.004 | pictilisib -0.005

HCCS (UniProt P53701)
inactive: [1] -0.057 | filanesib -0.014 | zotarolimus -0.047 | idasanutlin 0.025 | alisertib -0.008 | [2] -0.014 | gefitinib 0.016 | [3] 0.11 | lapatinib 0.009 | pictilisib 0.001

GYG1 (UniProt P46976)
active: pictilisib 0.376
inactive: [1] 0.08 | filanesib 0.124 | zotarolimus 0.036 | idasanutlin 0.15 | alisertib -0.133 | [2] -0.163 | gefitinib -0.028 | [3] -0.195 | lapatinib 0.051

GSTM4 (UniProt Q03013)
inactive: [1] 0.027 | filanesib 0.103 | zotarolimus 0.084 | idasanutlin 0.031 | alisertib 0.061 | [2] 0.084 | gefitinib -0.056 | [3] 0.068 | lapatinib 0.031 | pictilisib 0.022

GSS (UniProt P48637)
inactive: [1] -0.039 | filanesib -0.059 | zotarolimus -0.002 | idasanutlin -0.017 | alisertib -0.072 | [2] 0.032 | gefitinib 0 | [3] 0.053 | lapatinib -0.008 | pictilisib 0.021

HELQ (UniProt Q8TDG4)
inactive: [1] -0.024 | filanesib 0 | zotarolimus -0.021 | idasanutlin 0.061 | alisertib 0.067 | [2] 0.125 | gefitinib -0.122 | [3] -0.056 | lapatinib -0.04 | pictilisib -0.019

HDHD3 (UniProt Q9BSH5)
inactive: [1] -0.021 | filanesib -0.03 | zotarolimus -0.021 | idasanutlin 0.019 | alisertib -0.085 | [2] -0.022 | gefitinib 0.022 | [3] 0.048 | lapatinib -0.048 | pictilisib 0.056

HCLS1 (UniProt P14317)
inactive: [1] -0.031 | filanesib -0.008 | zotarolimus 0.003 | idasanutlin -0.018 | alisertib -0.047 | [2] 0.046 | gefitinib -0.006 | [3] 0.061 | lapatinib -0.05 | pictilisib 0.059

HERC4 (UniProt Q5GLZ8)
inactive: [1] 0.041 | filanesib -0.051 | zotarolimus -0.007 | idasanutlin -0.091 | alisertib 0.028 | [2] -0.003 | gefitinib 0.003 | [3] 0.019 | lapatinib 0.033 | pictilisib 0.029

GTF2H2 (UniProt Q13888)
inactive: [1] 0.001 | filanesib 0.07 | zotarolimus 0.068 | idasanutlin -0.01 | alisertib -0.027 | [2] 0.003 | gefitinib -0.006 | [3] -0.012 | lapatinib 0.04 | pictilisib 0.004

GTPBP6 (UniProt O43824)
inactive: [1] -0.105 | filanesib 0.049 | zotarolimus 0.061 | idasanutlin 0.018 | alisertib -0.217 | gefitinib -0.146 | [3] 0 | pictilisib -0.012

H2AZ1 (UniProt P0C0S5)
inactive: [1] 0.05 | filanesib 0.353 | zotarolimus -0.113 | idasanutlin 0.266 | alisertib 0.039 | [2] -0.046 | gefitinib 0.121 | [3] -0.161 | lapatinib 0 | pictilisib -0.09

GSTM2 (UniProt P28161)
inactive: [1] 0.025 | filanesib -0.048 | zotarolimus 0.015 | idasanutlin 0.034 | alisertib -0.1 | [2] -0.044 | gefitinib -0.001 | [3] 0.015 | lapatinib 0.135 | pictilisib 0.136

HEATR5B (UniProt Q9P2D3)
inactive: [1] -0.006 | filanesib -0.005 | zotarolimus -0.071 | idasanutlin 0 | alisertib 0.006 | [2] 0.039 | gefitinib -0.045 | [3] 0.033 | lapatinib 0.018 | pictilisib -0.065

7 successive entries from above, for reference:
GSS (UniProt P48637)
inactive: [1] -0.039 | filanesib -0.059 | zotarolimus -0.002 | idasanutlin -0.017 | alisertib -0.072 | [2] 0.032 | gefitinib 0 | [3] 0.053 | lapatinib -0.008 | pictilisib 0.021

HELQ (UniProt Q8TDG4)
inactive: [1] -0.024 | filanesib 0 | zotarolimus -0.021 | idasanutlin 0.061 | alisertib 0.067 | [2] 0.125 | gefitinib -0.122 | [3] -0.056 | lapatinib -0.04 | pictilisib -0.019

HDHD3 (UniProt Q9BSH5)
inactive: [1] -0.021 | filanesib -0.03 | zotarolimus -0.021 | idasanutlin 0.019 | alisertib -0.085 | [2] -0.022 | gefitinib 0.022 | [3] 0.048 | lapatinib -0.048 | pictilisib 0.056

HCLS1 (UniProt P14317)
inactive: [1] -0.031 | filanesib -0.008 | zotarolimus 0.003 | idasanutlin -0.018 | alisertib -0.047 | [2] 0.046 | gefitinib -0.006 | [3] 0.061 | lapatinib -0.05 | pictilisib 0.059

HERC4 (UniProt Q5GLZ8)
inactive: [1] 0.041 | filanesib -0.051 | zotarolimus -0.007 | idasanutlin -0.091 | alisertib 0.028 | [2] -0.003 | gefitinib 0.003 | [3] 0.019 | lapatinib 0.033 | pictilisib 0.029

GTF2H2 (UniProt Q13888)
inactive: [1] 0.001 | filanesib 0.07 | zotarolimus 0.068 | idasanutlin -0.01 | alisertib -0.027 | [2] 0.003 | gefitinib -0.006 | [3] -0.012 | lapatinib 0.04 | pictilisib 0.004

GTPBP6 (UniProt O43824)
inactive: [1] -0.105 | filanesib 0.049 | zotarolimus 0.061 | idasanutlin 0.018 | alisertib -0.217 | gefitinib -0.146 | [3] 0 | pictilisib -0.012

(further entries)

HEATR3 (UniProt Q7Z4Q2)
inactive: [1] 0.027 | filanesib 0.007 | zotarolimus -0.004 | alisertib 0.099 | [2] -0.083 | gefitinib 0.072 | [3] 0.046 | lapatinib 0.004 | pictilisib -0.134

HDGFL3 (UniProt Q9Y3E1)
inactive: [1] 0.002 | filanesib -0.032 | zotarolimus -0.046 | idasanutlin -0.039 | alisertib -0.052 | [2] 0.022 | gefitinib 0.016 | [3] 0.026 | lapatinib -0.007 | pictilisib 0.013

HACL1 (UniProt Q9UJ83)
inactive: [1] -0.003 | filanesib -0.085 | zotarolimus 0.075 | idasanutlin -0.038 | alisertib -0.016 | [2] -0.028 | gefitinib 0.031 | [3] 0.069 | lapatinib 0.005 | pictilisib -0.008

HADH isoform 2 (UniProt Q16836)
inactive: [1] -0.027 | filanesib -0.077 | zotarolimus 0.017 | idasanutlin -0.034 | alisertib -0.064 | [2] -0.017 | gefitinib 0.078 | [3] 0.007 | lapatinib 0.023 | pictilisib -0.041
